Results published in the supplement of paper PMC12819154, “High-throughput peptide-centric local stability assay extends protein–ligand identification to membrane proteins, tissues and bacteria” (Nature Structural & Molecular Biology, 2025).
The list shows a part of the results. Small differences around the control level are noise.

By UniProt entry, the sequences of proteins in these tests, tags left out. Where a name states a change or a piece, a line headed by the entry shows the natural chain unless it says otherwise.
UniProt Q01970, whole entry: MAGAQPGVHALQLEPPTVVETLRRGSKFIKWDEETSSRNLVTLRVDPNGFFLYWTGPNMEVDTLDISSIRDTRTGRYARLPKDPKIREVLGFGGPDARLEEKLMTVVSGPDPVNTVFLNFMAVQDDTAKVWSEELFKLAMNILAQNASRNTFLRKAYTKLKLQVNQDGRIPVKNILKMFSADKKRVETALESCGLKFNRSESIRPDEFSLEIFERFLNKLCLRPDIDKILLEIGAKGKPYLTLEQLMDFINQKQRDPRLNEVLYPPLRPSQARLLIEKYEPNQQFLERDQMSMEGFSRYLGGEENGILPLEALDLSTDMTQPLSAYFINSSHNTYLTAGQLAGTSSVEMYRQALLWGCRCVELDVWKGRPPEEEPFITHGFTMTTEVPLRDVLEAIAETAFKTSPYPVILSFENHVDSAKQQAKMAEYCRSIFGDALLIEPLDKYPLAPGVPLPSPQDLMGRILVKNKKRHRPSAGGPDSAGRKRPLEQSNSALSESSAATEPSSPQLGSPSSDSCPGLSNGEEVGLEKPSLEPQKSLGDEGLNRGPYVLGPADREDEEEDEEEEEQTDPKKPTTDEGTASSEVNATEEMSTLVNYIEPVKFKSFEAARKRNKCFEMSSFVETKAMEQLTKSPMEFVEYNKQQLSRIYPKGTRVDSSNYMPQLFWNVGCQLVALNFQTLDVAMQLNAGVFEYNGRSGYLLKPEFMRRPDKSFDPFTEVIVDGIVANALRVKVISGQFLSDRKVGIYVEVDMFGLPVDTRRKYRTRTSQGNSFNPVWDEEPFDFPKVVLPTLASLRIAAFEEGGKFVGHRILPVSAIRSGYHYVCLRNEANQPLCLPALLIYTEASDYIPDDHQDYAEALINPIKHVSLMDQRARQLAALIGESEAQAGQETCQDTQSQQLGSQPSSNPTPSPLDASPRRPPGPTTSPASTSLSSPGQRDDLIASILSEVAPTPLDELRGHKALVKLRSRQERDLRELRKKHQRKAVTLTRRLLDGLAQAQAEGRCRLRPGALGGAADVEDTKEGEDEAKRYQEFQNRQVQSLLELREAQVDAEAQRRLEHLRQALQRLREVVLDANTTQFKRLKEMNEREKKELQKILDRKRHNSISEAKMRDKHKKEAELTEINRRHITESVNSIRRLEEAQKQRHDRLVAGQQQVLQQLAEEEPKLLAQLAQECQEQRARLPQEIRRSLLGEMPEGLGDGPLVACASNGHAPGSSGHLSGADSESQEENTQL
UniProt Q0ZGT2: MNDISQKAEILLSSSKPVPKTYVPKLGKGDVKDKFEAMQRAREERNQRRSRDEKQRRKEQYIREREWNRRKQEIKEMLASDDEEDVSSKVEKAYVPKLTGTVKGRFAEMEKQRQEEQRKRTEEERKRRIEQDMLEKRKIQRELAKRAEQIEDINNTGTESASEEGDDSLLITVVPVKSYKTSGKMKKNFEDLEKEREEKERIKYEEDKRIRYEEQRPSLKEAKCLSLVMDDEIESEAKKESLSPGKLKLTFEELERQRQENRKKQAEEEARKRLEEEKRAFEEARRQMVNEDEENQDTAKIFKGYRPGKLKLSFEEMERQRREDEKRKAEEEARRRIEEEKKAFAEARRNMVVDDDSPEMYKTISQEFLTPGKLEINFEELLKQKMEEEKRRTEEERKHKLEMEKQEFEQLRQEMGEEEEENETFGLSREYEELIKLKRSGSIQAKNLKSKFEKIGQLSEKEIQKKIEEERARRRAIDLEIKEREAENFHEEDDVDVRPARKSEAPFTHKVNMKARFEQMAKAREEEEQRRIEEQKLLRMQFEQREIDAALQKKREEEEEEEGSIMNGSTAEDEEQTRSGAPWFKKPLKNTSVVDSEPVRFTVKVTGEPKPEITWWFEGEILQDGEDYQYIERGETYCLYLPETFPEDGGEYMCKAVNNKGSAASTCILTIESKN
UniProt Q04724: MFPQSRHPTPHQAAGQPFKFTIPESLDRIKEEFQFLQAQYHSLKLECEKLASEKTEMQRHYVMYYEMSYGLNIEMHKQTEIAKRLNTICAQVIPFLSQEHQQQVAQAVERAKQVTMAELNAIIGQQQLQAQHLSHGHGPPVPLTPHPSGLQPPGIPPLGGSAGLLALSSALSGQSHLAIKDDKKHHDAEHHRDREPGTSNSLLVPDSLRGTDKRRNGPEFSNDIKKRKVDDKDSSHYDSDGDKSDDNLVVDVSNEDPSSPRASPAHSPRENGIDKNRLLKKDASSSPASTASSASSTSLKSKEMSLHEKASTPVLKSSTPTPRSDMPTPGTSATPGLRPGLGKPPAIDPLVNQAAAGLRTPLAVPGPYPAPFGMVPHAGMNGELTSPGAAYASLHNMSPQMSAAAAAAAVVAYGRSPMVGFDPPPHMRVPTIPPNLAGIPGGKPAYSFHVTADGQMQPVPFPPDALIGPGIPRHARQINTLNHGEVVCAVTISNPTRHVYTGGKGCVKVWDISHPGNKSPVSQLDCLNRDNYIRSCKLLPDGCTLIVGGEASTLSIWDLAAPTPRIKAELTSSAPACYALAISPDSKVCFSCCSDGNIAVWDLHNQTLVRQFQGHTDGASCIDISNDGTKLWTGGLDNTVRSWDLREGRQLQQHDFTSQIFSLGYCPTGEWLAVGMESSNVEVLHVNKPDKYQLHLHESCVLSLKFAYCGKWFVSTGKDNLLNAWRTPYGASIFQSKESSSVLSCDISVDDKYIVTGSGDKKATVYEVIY
UniProt Q04864: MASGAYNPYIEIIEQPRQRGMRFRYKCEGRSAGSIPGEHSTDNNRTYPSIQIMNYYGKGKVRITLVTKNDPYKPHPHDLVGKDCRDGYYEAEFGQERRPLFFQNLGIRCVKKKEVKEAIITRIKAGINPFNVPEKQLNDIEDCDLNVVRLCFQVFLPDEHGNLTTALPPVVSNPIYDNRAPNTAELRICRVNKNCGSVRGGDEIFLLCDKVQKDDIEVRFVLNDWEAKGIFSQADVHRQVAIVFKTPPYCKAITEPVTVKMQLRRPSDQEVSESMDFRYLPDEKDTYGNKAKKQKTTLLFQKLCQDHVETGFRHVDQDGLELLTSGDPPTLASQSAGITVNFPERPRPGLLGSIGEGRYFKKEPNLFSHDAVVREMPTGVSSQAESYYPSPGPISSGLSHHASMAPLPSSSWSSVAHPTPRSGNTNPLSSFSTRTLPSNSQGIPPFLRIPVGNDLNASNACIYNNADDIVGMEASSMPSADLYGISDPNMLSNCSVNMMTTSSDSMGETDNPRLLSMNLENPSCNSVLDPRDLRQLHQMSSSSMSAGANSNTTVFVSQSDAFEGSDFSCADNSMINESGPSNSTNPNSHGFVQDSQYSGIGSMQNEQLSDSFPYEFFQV
UniProt P98077: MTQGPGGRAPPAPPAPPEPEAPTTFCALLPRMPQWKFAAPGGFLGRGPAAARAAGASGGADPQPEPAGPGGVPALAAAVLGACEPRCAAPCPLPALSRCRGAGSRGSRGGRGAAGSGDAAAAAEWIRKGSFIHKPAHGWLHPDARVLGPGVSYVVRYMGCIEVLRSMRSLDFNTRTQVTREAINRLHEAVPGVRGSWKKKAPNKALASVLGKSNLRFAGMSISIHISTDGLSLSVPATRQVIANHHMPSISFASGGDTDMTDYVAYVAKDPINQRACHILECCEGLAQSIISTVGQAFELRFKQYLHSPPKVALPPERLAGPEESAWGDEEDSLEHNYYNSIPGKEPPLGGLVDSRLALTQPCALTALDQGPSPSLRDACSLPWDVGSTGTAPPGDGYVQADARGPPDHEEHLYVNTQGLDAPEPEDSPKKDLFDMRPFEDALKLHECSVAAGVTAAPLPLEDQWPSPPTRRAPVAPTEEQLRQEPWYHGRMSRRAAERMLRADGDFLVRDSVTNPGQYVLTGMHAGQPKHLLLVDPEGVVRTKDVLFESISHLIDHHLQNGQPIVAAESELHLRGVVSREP
UniProt Q01650: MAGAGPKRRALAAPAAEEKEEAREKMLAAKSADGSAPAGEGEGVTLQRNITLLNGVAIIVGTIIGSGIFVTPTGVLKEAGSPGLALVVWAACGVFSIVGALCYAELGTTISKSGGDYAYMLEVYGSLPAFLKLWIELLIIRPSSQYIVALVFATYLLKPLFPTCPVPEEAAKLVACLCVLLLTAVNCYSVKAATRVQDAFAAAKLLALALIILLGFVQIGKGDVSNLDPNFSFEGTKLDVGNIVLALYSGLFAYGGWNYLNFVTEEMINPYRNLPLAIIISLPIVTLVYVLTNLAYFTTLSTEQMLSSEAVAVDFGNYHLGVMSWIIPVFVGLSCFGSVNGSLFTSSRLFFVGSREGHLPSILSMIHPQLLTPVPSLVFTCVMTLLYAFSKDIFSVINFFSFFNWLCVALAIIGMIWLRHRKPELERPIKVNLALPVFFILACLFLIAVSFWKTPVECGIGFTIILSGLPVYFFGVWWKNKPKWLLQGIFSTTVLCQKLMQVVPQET
UniProt Q03112: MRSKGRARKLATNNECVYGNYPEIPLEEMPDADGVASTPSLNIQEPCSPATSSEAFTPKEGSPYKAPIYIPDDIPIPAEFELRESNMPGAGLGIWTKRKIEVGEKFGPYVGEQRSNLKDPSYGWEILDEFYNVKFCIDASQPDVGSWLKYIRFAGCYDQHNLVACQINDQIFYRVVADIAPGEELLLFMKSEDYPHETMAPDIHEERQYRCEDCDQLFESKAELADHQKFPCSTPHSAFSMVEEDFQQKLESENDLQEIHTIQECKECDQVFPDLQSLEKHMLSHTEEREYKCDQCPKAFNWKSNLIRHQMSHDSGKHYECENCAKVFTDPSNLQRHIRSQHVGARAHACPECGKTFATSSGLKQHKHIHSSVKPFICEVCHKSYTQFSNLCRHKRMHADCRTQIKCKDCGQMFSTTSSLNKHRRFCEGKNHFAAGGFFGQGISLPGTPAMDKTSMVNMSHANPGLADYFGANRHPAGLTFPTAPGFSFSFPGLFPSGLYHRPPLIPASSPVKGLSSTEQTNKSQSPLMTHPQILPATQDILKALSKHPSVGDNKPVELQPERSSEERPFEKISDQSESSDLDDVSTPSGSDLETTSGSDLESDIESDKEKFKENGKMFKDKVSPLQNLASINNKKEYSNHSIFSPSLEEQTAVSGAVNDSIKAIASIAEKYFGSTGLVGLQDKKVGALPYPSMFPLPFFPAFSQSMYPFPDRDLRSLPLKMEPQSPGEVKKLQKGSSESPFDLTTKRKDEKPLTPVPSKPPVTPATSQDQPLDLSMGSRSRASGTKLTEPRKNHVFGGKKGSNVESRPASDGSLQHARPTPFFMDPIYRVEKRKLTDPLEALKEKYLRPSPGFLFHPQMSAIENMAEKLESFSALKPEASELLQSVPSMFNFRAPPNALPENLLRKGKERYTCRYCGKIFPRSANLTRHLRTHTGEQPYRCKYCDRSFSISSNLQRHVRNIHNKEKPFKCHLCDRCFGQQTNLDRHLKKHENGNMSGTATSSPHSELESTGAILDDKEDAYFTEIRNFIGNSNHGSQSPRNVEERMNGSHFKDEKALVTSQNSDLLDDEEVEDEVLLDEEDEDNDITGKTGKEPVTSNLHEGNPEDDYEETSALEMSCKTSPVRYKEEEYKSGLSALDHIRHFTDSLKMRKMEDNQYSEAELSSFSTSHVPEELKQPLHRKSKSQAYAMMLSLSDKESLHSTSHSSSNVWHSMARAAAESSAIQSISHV
UniProt Q06830: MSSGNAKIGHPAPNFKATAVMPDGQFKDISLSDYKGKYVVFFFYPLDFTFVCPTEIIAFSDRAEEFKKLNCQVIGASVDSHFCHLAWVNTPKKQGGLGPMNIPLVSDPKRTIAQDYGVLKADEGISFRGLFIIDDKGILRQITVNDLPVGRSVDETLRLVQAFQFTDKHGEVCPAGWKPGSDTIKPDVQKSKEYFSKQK
UniProt Q07812, whole entry: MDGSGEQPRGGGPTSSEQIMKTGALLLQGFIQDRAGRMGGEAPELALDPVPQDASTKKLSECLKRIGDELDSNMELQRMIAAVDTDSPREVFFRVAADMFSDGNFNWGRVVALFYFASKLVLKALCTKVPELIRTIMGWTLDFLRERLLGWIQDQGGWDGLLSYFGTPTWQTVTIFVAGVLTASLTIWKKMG
UniProt Q01415: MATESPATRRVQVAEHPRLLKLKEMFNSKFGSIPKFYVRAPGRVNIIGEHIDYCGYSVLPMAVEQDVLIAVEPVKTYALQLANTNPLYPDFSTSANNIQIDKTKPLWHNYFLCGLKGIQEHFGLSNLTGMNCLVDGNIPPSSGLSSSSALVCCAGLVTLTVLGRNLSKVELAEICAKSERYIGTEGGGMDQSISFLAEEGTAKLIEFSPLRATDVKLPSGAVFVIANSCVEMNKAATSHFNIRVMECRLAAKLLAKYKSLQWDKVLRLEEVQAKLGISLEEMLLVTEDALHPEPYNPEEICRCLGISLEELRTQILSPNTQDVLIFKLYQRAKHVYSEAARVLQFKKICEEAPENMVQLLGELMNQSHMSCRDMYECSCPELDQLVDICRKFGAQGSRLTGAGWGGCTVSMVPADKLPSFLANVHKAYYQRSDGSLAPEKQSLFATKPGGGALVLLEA

compound: Cc1nc(Nc2ncc(C(=O)Nc3c(C)cccc3Cl)s2)cc(N2CCN(CCO)CC2)n1 [dasatinib]; assay: log2 fold change of tryptic peptide abundance, ligand vs vehicle (limited proteolysis) (log2 ratio); higher = more trypsin-susceptible (destabilized); conditions: ligand concentration: 5 uM; sample: K562 cleared lysate

Target	log2 fold change
UniProt Q12798 (peptide sequence: MSEKDTKEEILK, peptide start residue: 97)	0.156
PLCB3 (peptide sequence: RYQEFQNR, peptide start residue: 1030) (UniProt Q01970)	-1.32
DMWD (peptide sequence: GGSGGSGSGGEKPSGPVPR, peptide start residue: 552) (UniProt Q09019)	0.214
GTF2B (peptide sequence: APDLFPTDFK, peptide start residue: 296) (UniProt Q00403)	-0.225
ANK3 (peptide sequence: NANVNLSNK, peptide start residue: 687) (UniProt Q12955)	0.643
UBXN1 (peptide sequence: EKAEELAAR, peptide start residue: 153) (UniProt Q04323)	0.0565
PPP1R8 (peptide sequence: RVEGPGSLGLEESGSRR, peptide start residue: 237) (UniProt Q12972)	0.152
NEXN (peptide sequence: EAENFHEEDDVDVRPAR, peptide start residue: 485) (UniProt Q0ZGT2)	0.301
ZNF92 (peptide sequence: YGHENLQLR, peptide start residue: 106) (UniProt Q03936)	0.278
TLE1 (peptide sequence: SPMVGFDPPPHMR, peptide start residue: 416) (UniProt Q04724)	-0.0576
SP3 (peptide sequence: RVACTCPNCK, peptide start residue: 597) (UniProt Q02447)	-0.506
UniProt Q08ER8 (peptide sequence: HSIIHTGEKPYECSECGK, peptide start residue: 529)	-0.154
MDM2 (peptide sequence: AKLENSTQAEEGFDVPDCKK, peptide start residue: 345) (UniProt Q00987)	0.373
SREBF2 (peptide sequence: GSSSGAVDPSVQR, peptide start residue: 78) (UniProt Q12772)	0.102
REL (peptide sequence: IKAGINPFNVPEK, peptide start residue: 123) (UniProt Q04864)	-0.442
AMPD3 (peptide sequence: WIIQVPR, peptide start residue: 469) (UniProt Q01432)	0.23
UniProt P98077 (peptide sequence: HLLLVDPEGVVR, peptide start residue: 532)	0.0977
UniProt Q08117 (peptide sequence: NGHDGDTHQEDDGEKSD, peptide start residue: 181)	0.18
SLC7A5 (peptide sequence: PELERPIK, peptide start residue: 423) (UniProt Q01650)	-0.482
UniProt Q03112 (peptide sequence: SGLSALDHIR, peptide start residue: 1133)	0.186
UniProt Q12768 (peptide sequence: IYFSAIAK, peptide start residue: 929)	0.304
DMPK (peptide sequence: DIKPDNILLDR, peptide start residue: 195) (UniProt Q09013)	-0.897
CAP1 (peptide sequence: EYKDVDKK, peptide start residue: 171) (UniProt Q01518)	0.451
FKBP3 (peptide sequence: ETKSEETLDEGPPKYTK, peptide start residue: 97) (UniProt Q00688)	-0.625
UniProt Q05519 (peptide sequence: SKTPPKSYSTAR, peptide start residue: 323)	0.292
PRDX1 (peptide sequence: DISLSDYKGK, peptide start residue: 28) (UniProt Q06830)	0.484
UniProt P98168 (peptide sequence: SSLYIHSK, peptide start residue: 433)	-0.0825
BAX (peptide sequence: GGGPTSSEQIMK, peptide start residue: 10) (UniProt Q07812)	-0.102
GALK2 (peptide sequence: LIEFSPLR, peptide start residue: 204) (UniProt Q01415)	0.0747

Two records picked at random from the list so far, as already listed:
Target	log2 fold change
PLCB3 (peptide sequence: RYQEFQNR, peptide start residue: 1030) (UniProt Q01970)	-1.32
BAX (peptide sequence: GGGPTSSEQIMK, peptide start residue: 10) (UniProt Q07812)	-0.102
